In PubChem BioAssay (NCATS):
The inconclusive results got no clear call from the source; some entries with a clear call stand among them for comparison. For some assays here: A potency beside an inconclusive call is a rough fit, not a confirmed value. The source made the active and inactive calls. Calls come from the whole dose curve; as a rule, active = well fitted curve in the direction sought with a large enough effect; inconclusive = small, poorly fitted or top-dose-only effect, or another doubt; inactive = no such curve, though single readings can be large; an effect the other way counts as inactive or inconclusive.

How the values were obtained:
[1] = Quantitative High-Throughput drug screen in 47 multiple myeloma cell lines against the NCATS MIPE library collection: KMS20_JCRB cell viability assay (AID 1918973); conditions: CellTiter-Glo ATP, 48 h; viability (% of DMSO): at 45.8 µM (top of the series); note: nearly all actives have a fitted effect of over 45% in size
Summary of the method: (§1)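 Viability readout: CellTiter-Glo luminescence following 5 min room-temperature incubation with reagent. Prior exposure: 48 h, 37C, humidified 5% CO2, 500 cells per well.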

[2] = Quantitative High-Throughput drug screen in 47 multiple myeloma cell lines against the NCATS MIPE library collection: KMS21BM_JCRB cell viability assay (AID 1918974); conditions: ATP luminescence, 48 h; viability: at 45.8 µM (top of the series) unless noted
Summary of the method: as §1

[3] = Quantitative High-Throughput drug screen in 47 multiple myeloma cell lines against the NCATS MIPE library collection: KMS26_JCRB cell viability assay (AID 1918975); conditions: KMS26 myeloma cells viability, CellTiter-Glo ATP, 48 h; viability (% of DMSO): at 45.8 µM (top of the series); note: nearly all actives have a fitted effect of over 45% in size
Summary of the method: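 Steps: seed 500 cells per well; pin-transfer MIPE 4.0 library; incubate 48 h at 37C, 5% CO2, humidified; add CellTiter-Glo, 5 min room temperature; read luminescence.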

[4] = Quantitative High-Throughput drug screen in 47 multiple myeloma cell lines against the NCATS MIPE library collection: MOLP8_DSMZ cell viability assay (AID 1918977); conditions: MOLP8 myeloma viability, CellTiter-Glo ATP luminescence, 48 h; viability (% of control): at 45.8 µM (top of the series); note: nearly all actives have a fitted effect of over 45% in size
Summary of the method: (§2)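 Myeloma cells (500/well) treated with MIPE 4.0 compounds for 48 h at 37 °C, 5% CO2. Viability read as ATP via CellTiter-Glo luminescence after 5 min at RT; DMSO-only wells = 100%, media-only = 0% viability.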

[5] = Quantitative High-Throughput drug screen in 47 multiple myeloma cell lines against the NCATS MIPE library collection: OCIMY1_PLB cell viability assay (AID 1918979); conditions: OCI-MY1 myeloma viability, CellTiter-Glo ATP, 48 h; viability: at 45.8 µM (top of the series) unless noted; note: nearly all actives have a fitted effect of over 35% in size
Summary of the method: as §2

[6] = Quantitative High-Throughput drug screen in 47 multiple myeloma cell lines against the NCATS MIPE library collection: KMS28PE_JCRB cell viability assay (AID 1918983); note: nearly all actives have a fitted effect of over 35% in size
Summary of the method: as §2

[7] = Quantitative High-Throughput drug screen in 47 multiple myeloma cell lines against the NCATS MIPE library collection: L363_DSMZ cell viability assay (AID 1918984); conditions: L363 myeloma viability, CellTiter-Glo ATP luminescence, 48 h; viability (% of control): at 45.8 µM (top of the series); note: nearly all actives have a fitted effect of over 40% in size
Summary of the method: as §2

[8] = Quantitative High-Throughput drug screen in 47 multiple myeloma cell lines against the NCATS MIPE library collection: OCIMY7_PLB cell viability assay (AID 1918987); conditions: OCI-MY7 myeloma viability, CellTiter-Glo ATP, 48 h; viability (% of DMSO): at 45.8 µM (top of the series); note: nearly all actives have a fitted effect of over 65% in size
Summary of the method: as §2

[9] = Quantitative High-Throughput drug screen in 47 multiple myeloma cell lines against the NCATS MIPE library collection: OPM1_PLB cell viability assay (AID 1918989); note: nearly all actives have a fitted effect of over 40% in size
Summary of the method: as §2

[10] = Quantitative High-Throughput drug screen in 47 multiple myeloma cell lines against the NCATS MIPE library collection: SKMM1_PLB cell viability assay (AID 1919863); conditions: SKMM1 myeloma viability, CellTiter-Glo ATP, 48 h; viability: stronger effect = lower value; note: nearly all actives have a fitted effect of over 35% in size
Summary of the method: as §2

[11] = Quantitative High-Throughput drug screen in 47 multiple myeloma cell lines against the NCATS MIPE library collection: XG1_PLB cell viability assay (AID 1919866); conditions: CellTiter-Glo ATP, 48 h; viability: at 45.8 µM (top of the series); note: nearly all actives have a fitted effect of over 35% in size
Summary of the method: as §2

[12] = Quantitative High-Throughput drug screen in 47 multiple myeloma cell lines against the NCATS MIPE library collection: NCIH929_DSMZ cell viability assay (AID 1918978); note: nearly all actives have a fitted effect of over 35% in size
Summary of the method: as §2

[13] = Quantitative High-Throughput drug screen in 47 multiple myeloma cell lines against the NCATS MIPE library collection: MM1S_ATCC cell viability assay (AID 1918980); note: nearly all actives have a fitted effect of over 45% in size
Summary of the method: as §2

[14] = Quantitative High-Throughput drug screen in 47 multiple myeloma cell lines against the NCATS MIPE library collection: LP1_DSMZ cell viability assay (AID 1918982); conditions: LP1 myeloma viability, CellTiter-Glo ATP luminescence, 48 h; viability (% of control): at 45.8 µM (top of the series); note: nearly all actives have a fitted effect of over 35% in size
Summary of the method: as §2

[15] = Quantitative High-Throughput drug screen in 47 multiple myeloma cell lines against the NCATS MIPE library collection: KMS34_JCRB cell viability assay (AID 1918985); conditions: KMS34 myeloma viability, CellTiter-Glo ATP luminescence, 48 h; viability, percent of control: at 45.8 µM (top of the series); note: nearly all actives have a fitted effect of over 40% in size
Summary of the method: as §2

[16] = Quantitative High-Throughput drug screen in 47 multiple myeloma cell lines against the NCATS MIPE library collection: OCIMY5_PLB cell viability assay (AID 1918988); conditions: OCI-MY5 myeloma viability, ATP luminescence, 48 h; viability, % of control: at 45.8 µM (top of the series); note: nearly all actives have a fitted effect of over 65% in size
Summary of the method: as §2

[17] = Quantitative High-Throughput drug screen in 47 multiple myeloma cell lines against the NCATS MIPE library collection: U266_ATCC cell viability assay (AID 1919864); conditions: U266 myeloma viability, CellTiter-Glo ATP luminescence, 48 h; viability (% of DMSO control): at 45.8 µM (top of the series); note: nearly all actives have a fitted effect of over 35% in size
Summary of the method: as §2

[18] = Quantitative High-Throughput drug screen in 47 multiple myeloma cell lines against the NCATS MIPE library collection: XG6_PLB cell viability assay (AID 1919865); conditions: XG6 myeloma viability, CellTiter-Glo ATP luminescence, 48 h; viability (% of control): at 45.8 µM (top of the series); note: nearly all actives have a fitted effect of over 40% in size
Summary of the method: as §2

[19] = Quantitative High-Throughput drug screen in 47 multiple myeloma cell lines against the NCATS MIPE library collection: MMM1_PLB cell viability assay (AID 1918976); note: nearly all actives have a fitted effect of over 35% in size
Summary of the method: as §2

[20] = Quantitative High-Throughput drug screen in 47 multiple myeloma cell lines against the NCATS MIPE library collection: MM1R_ATCC cell viability assay (AID 1918981); note: nearly all actives have a fitted effect of over 35% in size
Summary of the method: as §2
Potency is the fitted concentration of half-maximal effect.

CCCCn1c(=O)n(Cc2ccccc2F)c(=O)c2[nH]c(Cc3ccc(NC(C)=O)cc3)nc21
inconclusive: Potency [1] 20.9 µM [cytotoxic, single point] | Potency [2] 0.0166 µM [rising, full curve, poor fit] | Potency [3] 16.6 µM [cytotoxic, partial curve, poor fit] | Potency [5] 2.96 µM [cytotoxic, partial curve, poor fit] | Potency [8] 5.9 µM [cytotoxic, partial curve, poor fit] | viability [10] 78.3% [cytotoxic] | Potency [11] 0.0148 µM [rising, full curve, poor fit]
active: Potency [6] 18.7 µM
inactive: Potency [4] | Potency [7] | Potency [9]

Cc1ccc(NC(=O)c2cccc(C(C)(C)C#N)c2)cc1Nc1ccc2ncn(C)c(=O)c2c1
inconclusive: Potency [2] 37.2 µM [rising, partial curve, poor fit] | Potency [3] 3.32 µM [cytotoxic, full curve, poor fit] | Potency [4] 14.8 µM [cytotoxic, partial curve] | Potency [12] 1.87 µM [cytotoxic, full curve] | Potency [14] 20.9 µM [cytotoxic, partial curve] | Potency [7] 2.64 µM [cytotoxic, partial curve, poor fit] | Potency [15] 13.2 µM [cytotoxic, partial curve, poor fit] | Potency [11] 6.62 µM [cytotoxic, partial curve]
active: Potency [1] 2.96 µM | Potency [13] 6.62 µM | Potency [6] 11.8 µM

CCCCC[C@H](O)C=C[C@H]1[C@H](O)CC(=O)[C@H]1CCCCCCC(=O)O
inactive: Potency [3] | Potency [12] | Potency [5] | Potency [14] | Potency [7] | Potency [11]
inconclusive: Potency [1] 18.7 µM [cytotoxic, partial curve, poor fit] | Potency [2] 33.2 µM [rising, partial curve] | Potency [4] 3.72 µM [cytotoxic, partial curve, poor fit] | Potency [15] 0.0148 µM [cytotoxic, full curve, poor fit] | Potency [8] 20.9 µM [cytotoxic, partial curve, poor fit] | Potency [16] 83.3 µM [cytotoxic, partial curve, poor fit] | Potency [9] 37.2 µM [cytotoxic, partial curve, poor fit] | Potency [10] 11.8 µM [cytotoxic, partial curve, poor fit] | viability (% of DMSO control) [17] 92.4% [cytotoxic]

COc1c2occc2cc2ccc(=O)oc12
inconclusive: Potency [1] 0.0037 µM [rising, full curve, poor fit] | Potency [2] 33.2 µM [rising, partial curve, poor fit] | Potency [4] 0.332 µM [cytotoxic, full curve, poor fit] | Potency [5] 0.001 µM | Potency [8] 3.72 µM [cytotoxic, partial curve, poor fit] | Potency [16] 0.526 µM [cytotoxic, full curve, poor fit] | Potency [9] 0.003 µM [cytotoxic, full curve, poor fit]
inactive: Potency [3] | Potency [7] | Potency [15] | viability [10] 118% | Potency [17] | Potency [18]

Cc1cn(-c2cc(NC(=O)c3ccc(C)c(Nc4nccc(-c5cccnc5)n4)c3)cc(C(F)(F)F)c2)cn1
inconclusive: Potency [1] 11.8 µM [cytotoxic, single point] | Potency [2] 11.8 µM [rising, single point] | Potency [3] 29.6 µM [cytotoxic, partial curve, poor fit] | Potency [15] 23.5 µM [cytotoxic, partial curve, poor fit] | Potency [18] 29.6 µM [cytotoxic, partial curve]
inactive: Potency [13] | Potency [7] | Potency [8] | Potency [11]
active: Potency [4] 20.9 µM | Potency [5] 26.4 µM | Potency [14] 23.5 µM | Potency [6] 20.9 µM

O=c1ncn2nc(Sc3ccc(F)cc3F)ccc2c1-c1c(Cl)cccc1Cl
inconclusive: Potency [1] 11.8 µM [cytotoxic, partial curve, poor fit] | Potency [2] 2.64 µM [cytotoxic, full curve, poor fit] | Potency [4] 0.0013 µM [cytotoxic, full curve, poor fit] | Potency [13] 33.2 µM [cytotoxic, single point] | viability (% of control) [14] 32.8% [cytotoxic] | Potency [15] 0.0042 µM [cytotoxic, full curve, poor fit] | Potency [10] 0.0093 µM [cytotoxic, full curve, poor fit] | Potency [11] 4.18 µM [cytotoxic, partial curve, poor fit]
active: Potency [19] 20.9 µM | Potency [12] 18.7 µM | Potency [7] 18.7 µM | Potency [17] 20.9 µM

COc1cc2nccc(Oc3ccc(NC(=O)Nc4cc(C)on4)c(Cl)c3)c2cc1OC
inconclusive: Potency [1] 26.4 µM [cytotoxic, single point] | Potency [2] 37.2 µM [rising, partial curve] | Potency [12] 1.48 µM [cytotoxic, full curve, poor fit] | Potency [5] 33.2 µM [cytotoxic, single point] | Potency [20] 26.4 µM [cytotoxic, single point] | Potency [14] 23.5 µM [cytotoxic, partial curve] | Potency [6] 33.2 µM [cytotoxic, single point] | Potency [7] 0.0012 µM [cytotoxic, full curve, poor fit] | Potency [8] 0.935 µM [cytotoxic, full curve, poor fit] | Potency [10] 23.5 µM [cytotoxic, partial curve, poor fit]
active: Potency [3] 16.6 µM | Potency [15] 4.18 µM | Potency [16] 16.6 µM

Fc1ccc([C@@H]2CCNC[C@H]2COc2ccc3c(c2)OCO3)cc1
inconclusive: Potency [1] 18.7 µM [cytotoxic, partial curve, poor fit] | Potency [2] 16.6 µM [rising, partial curve] | Potency [12] 18.7 µM [cytotoxic, partial curve, poor fit] | Potency [5] 0.0012 µM [cytotoxic, full curve, poor fit] | Potency [13] 23.5 µM [cytotoxic, partial curve] | Potency [14] 18.7 µM [cytotoxic, partial curve, poor fit] | Potency [7] 0.148 µM [cytotoxic, full curve, poor fit] | Potency [15] 0.148 µM [rising, full curve, poor fit] | Potency [9] 23.5 µM [cytotoxic, partial curve] | Potency [10] 18.7 µM [cytotoxic, partial curve, poor fit] | Potency [17] 20.9 µM [cytotoxic, partial curve, poor fit] | Potency [18] 18.7 µM [cytotoxic, partial curve, poor fit]
active: Potency [6] 20.9 µM
inactive: Potency [3] | Potency [8]

CC(Cc1ccc(O)c(O)c1)(NN)C(=O)O (stereo not given)
inactive: Potency [7]
inconclusive: Potency [1] 1.18 µM [cytotoxic, full curve, poor fit] | Potency [2] 37.2 µM [rising, partial curve, poor fit] | Potency [3] 37.2 µM [cytotoxic, single point] | Potency [13] 23.5 µM [cytotoxic, single point] | Potency [20] 29.6 µM [cytotoxic, single point] | Potency [14] 33.2 µM [cytotoxic, single point] | Potency [6] 37.2 µM [cytotoxic, single point] | Potency [15] 23.5 µM [cytotoxic, partial curve] | Potency [8] 0.0105 µM [cytotoxic, full curve, poor fit] | Potency [16] 37.2 µM [cytotoxic, single point] | Potency [9] 0.0012 µM [cytotoxic, full curve, poor fit] | Potency [17] 29.6 µM [cytotoxic, partial curve, poor fit]

C[C@@H]1CC(=O)NN=C1c1ccc(NN=C(C#N)C#N)cc1
inconclusive: Potency [1] 26.4 µM [cytotoxic, single point] | Potency [2] 10.5 µM [rising, partial curve, poor fit] | Potency [3] 29.6 µM [cytotoxic, partial curve, poor fit] | Potency [8] 4.69 µM [cytotoxic, partial curve, poor fit] | Potency [10] 33.2 µM [cytotoxic, single point] | Potency [17] 33.2 µM [cytotoxic, single point]
inactive: Potency [7]
active: Potency [5] 23.5 µM | Potency [15] 20.9 µM
